These results are taken from the supplement of paper PMC11348887.

Conditions in all cases: 5 µM; treatment: days 7-14 after plating, readout day 21
Assay [1] concerns hPSC-derived cortical neurons (WA09). Kind of assay: nucleus area z-score vs screen plate; higher = larger nuclei (more mature).
For assay [2] the test system is unchanged. Kind of assay: total neurite length per nucleus (MAP2) z-score; higher = more neurite growth.
Assay [3] shares this test system. Kind of assay: nucleus roundness z-score vs screen plate; higher = rounder nuclei (more mature).
Assay [4] shares this test system. In words: KCl-induced FOS+/EGR-1+ double-positive nuclei fraction z-score (KCl minus unstimulated); higher = stronger activity-induced IEG response.

Counter-ions that a name gives are not always drawn. Some of the results follow. Small differences around the control level are noise. Where a SMILES comes first, the peptide text is derived from it. [ ]: non-standard residue; d: D form. The star is where a group is joined. Dolaproine = CO[C@@H]([C@@H]1CCCN1)[C@@H](C)C(=O)O; Dil = CC[C@H](C)[C@H](NC)[C@@H](CC(=O)O)OC; X2 = C[C@@H](N*)[C@@H](O)c1ccccc1; NMeV = CN[C@H](C(=O)O)C(C)C

Turning to `CN[C@@H]1[C@@H](O)[C@@H](O[C@@H]2[C@@H](O)[C@H](O[C@H]3O[C@H]([C@@H](C)O)[C@@H](O)[C@H](O)[C@H]3N)[C@@H](N)C[C@H]2N)OC[C@]1(C)O` [Geneticin (G418 Sulfate)], in assay [1], the nucleus area z-score was -1.6. The “total neurite length per nucleus (z-score)” value in assay [2] was -0.875. Besides, the nucleus roundness z-score in assay [3] is -0.595. Also, the “KCl-induced FOS+/EGR-1+ double-positive nuclei fraction z-score” value in assay [4] is -1.46.

In assay [1], `CC(NC(C)(C)C)C(=O)c1cccc(Cl)c1` (stereo not drawn) [Amfebutamone HCl] came in with a nucleus area z-score of -0.597. For the same molecule, the “total neurite length per nucleus (z-score)” value in assay [2] is -1.55. The molecule further returned a nucleus roundness z-score in assay [3] of -2.56. Moreover, the “KCl-induced FOS+/EGR-1+ double-positive nuclei fraction z-score” value in assay [4] was -0.734.

In assay [1], `OC(c1ccccc1)(c1ccccc1)C1CCNCC1` [Azacyclonol] gave a nucleus area z-score of -8.52. Besides, the “total neurite length per nucleus (z-score)” value in assay [2] was -4.53. In assay [3], this molecule had a nucleus roundness z-score of -7.19. Also, the “KCl-induced FOS+/EGR-1+ double-positive nuclei fraction z-score” value in assay [4] is -0.0867.

For `Cc1sc2c(c1C)C(c1ccc(Cl)cc1)=N[C@@H](CC(N)=O)c1nnc(C)n1-2`, the nucleus area z-score in assay [1] is -6.07. For the same molecule, the “total neurite length per nucleus (z-score)” value in assay [2] was -0.815. This molecule showed a nucleus roundness z-score in assay [3] of -3.8. In addition, in assay [4], the “KCl-induced FOS+/EGR-1+ double-positive nuclei fraction z-score” value was -0.817.

`Cc1cc(SCc2sc(-c3ccc(C(F)(F)F)c(F)c3)nc2C)ccc1OCC(=O)O` showed a nucleus area z-score in assay [1] of -0.0731. For the same molecule, the “total neurite length per nucleus (z-score)” value in assay [2] is 0.0928. For the same molecule, the nucleus roundness z-score in assay [3] was -0.00673. Moreover, the “KCl-induced FOS+/EGR-1+ double-positive nuclei fraction z-score” value in assay [4] was -0.138.

Molecule `C[C@]12CC[C@H](O)C[C@@H]1CC[C@@H]1[C@@H]2CC[C@]2(C)C(=O)CC[C@@H]12` [Epiandrosterone] returned a nucleus area z-score in assay [1] of -0.13. The “total neurite length per nucleus (z-score)” value in assay [2] was -0.359. In addition, the nucleus roundness z-score in assay [3] was -0.187. Also, the “KCl-induced FOS+/EGR-1+ double-positive nuclei fraction z-score” value in assay [4] is 0.459.

The molecule `CC(C)OC(=O)[C@H](C)N[P@](=O)(CO[C@H](C)Cn1cnc2c(N)ncnc21)Oc1ccccc1` [Tenofovir Alafenamide (GS-7340)] came in with a nucleus area z-score in assay [1] of -0.139. The “total neurite length per nucleus (z-score)” value in assay [2] stood at 0.61. The molecule also returned a nucleus roundness z-score in assay [3] of 0.0121. Moreover, the “KCl-induced FOS+/EGR-1+ double-positive nuclei fraction z-score” value in assay [4] is 0.156.

`CC(=O)OC12COC1CC(O)C1(C)C(=O)C(O)C3=C(C)C(O)CC(O)(C(OC(=O)c4ccccc4)C21)C3(C)C` (stereo not drawn) [10-Deacetylbaccatin-III] registered a nucleus area z-score in assay [1] of 0.015. The “total neurite length per nucleus (z-score)” value in assay [2] was -0.142. Also, the nucleus roundness z-score in assay [3] is -0.479. Moreover, in assay [4], the “KCl-induced FOS+/EGR-1+ double-positive nuclei fraction z-score” value is -0.622.

In assay [1], `CC1(C)CC(O)CC(C)(C)N1[O]` [Tempol] gave a nucleus area z-score of -0.0821. Moreover, the “total neurite length per nucleus (z-score)” value in assay [2] was -0.0406. Besides, in assay [3], the nucleus roundness z-score amounted to 0.176. Besides, the “KCl-induced FOS+/EGR-1+ double-positive nuclei fraction z-score” value in assay [4] was -0.387.

Consider `CC(=O)OC1CN2CCC1CC2` (stereo not drawn) [Aceclidine HCl], for which, in assay [1], the nucleus area z-score was -0.806. In addition, the “total neurite length per nucleus (z-score)” value in assay [2] is 0.528. Further, the nucleus roundness z-score in assay [3] is 1.26. Further, the “KCl-induced FOS+/EGR-1+ double-positive nuclei fraction z-score” value in assay [4] was 0.291.

`CN1C(=O)CCS(=O)(=O)C1c1ccc(Cl)cc1` (stereo not drawn) [Chlormezanone]: the nucleus area z-score in assay [1] came to 0.551. In assay [2], the “total neurite length per nucleus (z-score)” value amounted to 0.114. This molecule gave a nucleus roundness z-score in assay [3] of 0.43. The “KCl-induced FOS+/EGR-1+ double-positive nuclei fraction z-score” value in assay [4] was 4.24.

In turn, `CN1CCc2cc3c(cc2C1C1OC(=O)c2c1ccc1c2OCO1)OCO3` (single isomer, unassigned; (+)) [(+)-Bicuculline] gave a nucleus area z-score in assay [1] of -0.524. Besides, in assay [2], the “total neurite length per nucleus (z-score)” value stood at 0.0655. The molecule further displayed a nucleus roundness z-score in assay [3] of 0.61. The “KCl-induced FOS+/EGR-1+ double-positive nuclei fraction z-score” value in assay [4] is -0.0237.

Molecule `CC[C@H](C)[C@@H]([C@@H](CC(=O)N1CCC[C@H]1[C@H](OC)[C@@H](C)C(=O)N[C@H](C)[C@@H](O)c1ccccc1)OC)N(C)C(=O)[C@@H](NC(=O)[C@@H](NC)C(C)C)C(C)C` [Monomethyl auristatin E (MMAE)] (H-[NMeV]V[Dil][Dolaproine]-X2) displayed a nucleus area z-score in assay [1] of -16.2. The “total neurite length per nucleus (z-score)” value in assay [2] was -4.9. The nucleus roundness z-score in assay [3] was -3.37. The “KCl-induced FOS+/EGR-1+ double-positive nuclei fraction z-score” value in assay [4] is -1.08.

`Cc1sc2c(c1C)C(c1ccc(Cl)cc1)=N[C@@H](CC(=O)Nc1ccc(O)cc1)c1nnc(C)n1-2` yielded a nucleus area z-score in assay [1] of -5.68. Moreover, the “total neurite length per nucleus (z-score)” value in assay [2] was -2.53. The molecule also showed a nucleus roundness z-score in assay [3] of -5.28. Moreover, the “KCl-induced FOS+/EGR-1+ double-positive nuclei fraction z-score” value in assay [4] was -1.89.

As for `C[C@@H]1CC[C@@]2(OC1)O[C@H]1C[C@H]3[C@@H]4CC=C5C[C@@H](O[C@@H]6O[C@H](CO)[C@@H](O[C@@H]7O[C@@H](C)[C@H](O)[C@@H](O)[C@H]7O)[C@H](O)[C@H]6O[C@@H]6O[C@@H](C)[C@H](O)[C@@H](O)[C@H]6O)CC[C@]5(C)[C@H]4CC[C@]3(C)[C@H]1[C@@H]2C` [Dioscin], the nucleus area z-score in assay [1] was -6.59. Besides, the “total neurite length per nucleus (z-score)” value in assay [2] is -2.25. In assay [3], this molecule returned a nucleus roundness z-score of 1.24. Besides, in assay [4], the “KCl-induced FOS+/EGR-1+ double-positive nuclei fraction z-score” value came to 4.9.

Molecule `Cc1cc2c(C(C)C)c(O)c(O)c(C=O)c2c(O)c1-c1c(C)cc2c(C(C)C)c(O)c(O)c(C=O)c2c1O` [Gossypol] registered a nucleus area z-score in assay [1] of 0.246. In addition, the “total neurite length per nucleus (z-score)” value in assay [2] was -0.304. In addition, in assay [3], the nucleus roundness z-score was -1.4. Besides, the “KCl-induced FOS+/EGR-1+ double-positive nuclei fraction z-score” value in assay [4] is 0.191.

The molecule `[O-][n+]1ccccc1[S-].[O-][n+]1ccccc1[S-].[Zn+2]` [Zinc Pyrithione] registered a nucleus area z-score in assay [1] of -3.8. Further, the “total neurite length per nucleus (z-score)” value in assay [2] was -1.13. In assay [3], this molecule showed a nucleus roundness z-score of -0.636. Besides, the “KCl-induced FOS+/EGR-1+ double-positive nuclei fraction z-score” value in assay [4] is -0.277.

`C#C[C@]1(O)C=C[C@H]2[C@@H]3CCC4=CC(=O)CC[C@@H]4[C@H]3CC[C@@]21CC` [Gestodene] showed a nucleus area z-score in assay [1] of 0.119. Besides, the “total neurite length per nucleus (z-score)” value in assay [2] is -0.0134. Moreover, the nucleus roundness z-score in assay [3] is 0.0245. Besides, in assay [4], the “KCl-induced FOS+/EGR-1+ double-positive nuclei fraction z-score” value was -0.219.

`CN(C)C(=O)Oc1ccc[n+](C)c1` [Pyridostigmine Bromide]: the nucleus area z-score in assay [1] worked out at 1.13. Moreover, the “total neurite length per nucleus (z-score)” value in assay [2] is -0.434. Moreover, the nucleus roundness z-score in assay [3] was -0.403. The “KCl-induced FOS+/EGR-1+ double-positive nuclei fraction z-score” value in assay [4] worked out at 0.338.

In assay [1], `Cn1c(CCCC(=O)O)nc2cc(N(CCCl)CCCl)ccc21` [Bendamustine HCl] returned a nucleus area z-score of -0.344. Also, the “total neurite length per nucleus (z-score)” value in assay [2] is -0.488. The same molecule returned a nucleus roundness z-score in assay [3] of -0.363. In addition, the “KCl-induced FOS+/EGR-1+ double-positive nuclei fraction z-score” value in assay [4] amounted to 0.477.

In assay [1], `NC(=O)CN1CC(O)CC1=O` (stereo not drawn) [Oxiracetam] had a nucleus area z-score of -0.0651. Moreover, in assay [2], the “total neurite length per nucleus (z-score)” value is 0.142. Moreover, the nucleus roundness z-score in assay [3] is -0.354. In assay [4], the “KCl-induced FOS+/EGR-1+ double-positive nuclei fraction z-score” value stood at 0.903.

For the molecule `O=C(O)C(=O)c1cn(Cc2ccccc2)c2ccc(-c3ccc(OC(F)(F)F)cc3)cc12` [Tiplaxtinin (PAI-039)], the nucleus area z-score in assay [1] was -0.363. Further, the “total neurite length per nucleus (z-score)” value in assay [2] was -0.0224. Also, the nucleus roundness z-score in assay [3] was -0.0668. Moreover, the “KCl-induced FOS+/EGR-1+ double-positive nuclei fraction z-score” value in assay [4] was -0.533.

In turn, `C/C=C(\C)C(=O)N[C@@H](c1ccccc1)[C@@H](O)C(=O)O[C@H]1C[C@@]2(O)[C@@H](OC(=O)c3ccccc3)[C@@H]3[C@]4(OC(C)=O)CO[C@@H]4C[C@H](O)[C@@]3(C)C(=O)[C@H](OC(C)=O)C(=C1C)C2(C)C` [Cephalomannine] registered a nucleus area z-score in assay [1] of -2.39. Also, in assay [2], the “total neurite length per nucleus (z-score)” value was -1.2. In assay [3], this molecule displayed a nucleus roundness z-score of -2.03. Moreover, in assay [4], the “KCl-induced FOS+/EGR-1+ double-positive nuclei fraction z-score” value was -0.617.

In assay [1], `O=P1(N(CCCl)CCCl)NCCCO1` (stereo not drawn) [Cyclophosphamide Monohydrate] came in with a nucleus area z-score of 1.3. In addition, in assay [2], the “total neurite length per nucleus (z-score)” value is -1.32. The molecule also yielded a nucleus roundness z-score in assay [3] of 0.128. For the same molecule, the “KCl-induced FOS+/EGR-1+ double-positive nuclei fraction z-score” value in assay [4] stood at 0.102.

Molecule `Cc1cccc(C)c1NC(=O)CN1CCCC1=O` [Nefiracetam] returned a nucleus area z-score in assay [1] of 0.505. Besides, in assay [2], the “total neurite length per nucleus (z-score)” value is 0.161. In assay [3], this molecule registered a nucleus roundness z-score of 0.621. For the same molecule, the “KCl-induced FOS+/EGR-1+ double-positive nuclei fraction z-score” value in assay [4] was -0.481.

Take `CCC1=C[C@H]2CN3CCc4c([nH]c5ccccc45)[C@](C(=O)OC)(C2)[C@H]13` [Catharanthine]: the nucleus area z-score in assay [1] was -0.747. In addition, the “total neurite length per nucleus (z-score)” value in assay [2] was -0.223. In assay [3], this molecule returned a nucleus roundness z-score of -1.31. Further, the “KCl-induced FOS+/EGR-1+ double-positive nuclei fraction z-score” value in assay [4] is -0.739.

`Cc1cccc(C)c1NC1=NCCCS1` [Xylazine HCl] registered a nucleus area z-score in assay [1] of -0.00202. In assay [2], the “total neurite length per nucleus (z-score)” value was 1.07. The same molecule gave a nucleus roundness z-score in assay [3] of 1.36. In assay [4], the “KCl-induced FOS+/EGR-1+ double-positive nuclei fraction z-score” value is 1.42.
